# Results reported in PubChem BioAssay AID540276 (National Center for Advancing Translational Sciences (NCATS), 2011).
# Hit rate of the full screen: of about 300,000 compounds, about 5,400 (1.8%) were called active. Inconclusive results, whose numbers are uncertain, are shown with a selection of clear calls. The call rests on the fitted dose curve; tested in HEK293 cells. Potencies beside an inconclusive call are fits to weak or partial responses and may not hold up.
# Assay: qHTS for inhibitors of binding or entry into cells for Marburg Virus
# Settings: Marburg virus pseudotyped entry inhibition, cell reporter; activity change, negative = inhibition: at 37.8 µM (top of the series) unless noted
# On the % scale 0 is the no-effect control and ±100 the full control effect; potency means the concentration at half of the fitted maximal effect.
Structure (SMILES),Potency,"activity change, negative = inhibition"
CCOC(=O)c1c(C)[nH]c(C(=O)C(C)Sc2ccc(Cl)cc2)c1C (centres undefined),"inconclusive: 3.98 µM [activator, single point]",–
COc1ccc(CN2CCN(C(=O)c3ccc(-c4ccccc4)cc3)CC2)c(OC)c1OC,"inconclusive: 7.94 µM [inhibitor, partial curve, poor fit]",–
Cc1ccccc1NC(=S)N=Nc1c(O)n(C)c2ccc(S(=O)(=O)N3CCOCC3)cc12,"inconclusive: 5.62 µM [inhibitor, full curve, poor fit]",–
O=C(NCC1CCN(Cc2cccc(Cl)c2)CC1)Nc1ccccc1Cl,"inconclusive: 11.2 µM [inhibitor, partial curve, poor fit]",–
COc1ccc2[nH]c(C(=O)NCc3ccccc3)c(C)c2c1,"inconclusive: 3.98 µM [inhibitor, full curve, poor fit]",–
O=C(O)c1cccc(S(=O)(=O)Nc2ccccc2Cc2ccccc2)c1,"inconclusive: 22.4 µM [activator, single point]",–
CC(=O)N1c2ccc(S(=O)(=O)CCC(=O)O)cc2CC1C (centres undefined),"inconclusive: 35.5 µM [activator, single point]",–
COc1ccc(C)cc1NC(=O)c1cc2ccccc2cc1OCC(=O)NCc1ccco1,–,inactive: -8.44%
Cc1cc(C)cc(NC(=O)Cn2c(C(F)(F)F)nc3ccccc32)c1,–,inactive: 9.42% [at 46.1 µM]
CCOc1ccccc1NC(=O)Nc1ccncc1,–,inactive: -6.34% [at 46.1 µM]
Cc1cccc(CN2CCN(C(C)C(=O)NC(C)c3ccccc3)CC2)c1 (centres undefined),"inconclusive: 20 µM [inhibitor, single point]",–
Cc1oc(-c2cccc(Cl)c2)nc1Cn1c(SCc2ccccc2F)nc2ccncc21,"inconclusive: 12.6 µM [activator, partial curve]",–
CCCCN(C(=O)CNC(=O)c1cccs1)C(C(=O)NC1CCCC1)c1ccncc1 (centres undefined),–,inactive: -5.58% [at 46.1 µM]
COc1ccc(/C=N/NC(=O)COc2cccc3ccccc23)c(C(=O)O)c1OC,"inconclusive: 11.2 µM [activator, partial curve, poor fit]",–
COc1ccc(CNCc2ccc(OC)c3ccccc23)cc1,"inconclusive: 35.5 µM [inhibitor, single point]",–
CCOC(=O)N1CCN(CCC(=O)Nc2ccc(F)c(F)c2)CC1,"inconclusive: 3.55 µM [activator, partial curve]",–
CCN(CC)S(=O)(=O)c1cc(C(=O)OCC(=O)Nc2cccc(C)c2C)ccc1F,"inconclusive: 0.562 µM [activator, full curve, poor fit]",–
Cc1ccc(S(=O)(=O)N2CCOCC2)cc1C(=O)Nc1nc(-c2cccnc2)cs1,–,inactive: 6.45%
CC(=O)N1CCCc2cc(S(=O)(=O)Nc3ccccc3C)ccc21,"inconclusive: 22.4 µM [inhibitor, single point]",–
Cc1cc(=O)n2c(n1)SCOC2,"inconclusive: 6.31 µM [inhibitor, partial curve, poor fit]",–
COc1ccc(C(=O)NC2CC2)cc1OC1CCN(Cc2ccccc2O)CC1,"inconclusive: 14.1 µM [inhibitor, partial curve, poor fit]",–
CCOC(=O)c1cc2ccccc2n1CCN(CC)CC,"inconclusive: 8.2 µM [inhibitor, partial curve, poor fit]",–

# Reprinted from the entries so far, 3 compounds:
Structure (SMILES),Potency,"activity change, negative = inhibition"
O=C(NCC1CCN(Cc2cccc(Cl)c2)CC1)Nc1ccccc1Cl,"inconclusive: 11.2 µM [inhibitor, partial curve, poor fit]",–
COc1ccc2[nH]c(C(=O)NCc3ccccc3)c(C)c2c1,"inconclusive: 3.98 µM [inhibitor, full curve, poor fit]",–
O=C(O)c1cccc(S(=O)(=O)Nc2ccccc2Cc2ccccc2)c1,"inconclusive: 22.4 µM [activator, single point]",–

# Going on with the list:

Structure (SMILES),Potency,"activity change, negative = inhibition"
CN(CCO)c1cc(N2CCN(C(=O)c3ccco3)CC2)c2nonc2c1[N+](=O)[O-],"inconclusive: 1.12 µM [activator, full curve]",–
COC1OC(COCc2ccccc2)C(N)C(OCc2ccccc2)C1OCc1ccccc1 (centres undefined),"inconclusive: 15.8 µM [inhibitor, partial curve, poor fit]",–
CC1CCCN(CCC(=O)Nc2ccc3c(c2)CCC3)C1 (centres undefined),"inconclusive: 14.1 µM [inhibitor, partial curve, poor fit]",–
COc1ccc2[nH]c3nc(SCC(=O)NNC(=O)c4ccc(OC)c(OC)c4)nnc3c2c1,–,inactive: 1.05%
Fc1ccc(NC(=S)N2CCN(c3ncccn3)CC2)cc1,–,inactive: 29.3%
CN(C)c1ccc(Cc2cc3c(O)ccc(O)c3cc(Cc3ccc(N(C)C)cc3)c2=O)cc1,"inconclusive: 6.31 µM [inhibitor, partial curve, poor fit]",–
CC1CCN(C(=O)COC(=O)CCC(=O)c2ccc(F)cc2)CC1,"inconclusive: 1.26 µM [activator, single point]",–
CC1C(=O)N2CCCc3cc(NC(=O)COc4ccc(Cl)cc4)cc1c32 (centres undefined),–,inactive: -9.01% [at 46.1 µM]
Cn1c(CSc2nc3ccc(Br)cc3[nH]2)nc2ccccc21,"inconclusive: 23.1 µM [inhibitor, single point]",–
NC(=O)CSc1nc2cc(Cl)ccc2c(=O)n1C1CCCCC1,"inconclusive: 8.91 µM [inhibitor, partial curve, poor fit]",–
Cc1ccccc1NC(=O)Cc1nc(CCl)cs1,–,inactive: -3.26%
Oc1ccc(C2C[C@H]3CC[C@@H]2C3)cc1O (some centres undefined),"inconclusive: 0.224 µM [activator, full curve, poor fit]",–
Cc1nn(CC(=O)N2CCN(c3cccc(C(F)(F)F)c3)CC2)c(=O)c2cccn12,"inconclusive: 5.62 µM [inhibitor, single point]",–
CC(C)CN(C(=O)COC(=O)C12CC3CC(CC(Cl)(C3)C1)C2)c1c(N)n(Cc2ccccc2)c(=O)[nH]c1=O,–,inactive: -21.7%
CCSc1nnc(NC(=O)C2Cc3ccccc3CN2C(=O)c2ccco2)s1 (centres undefined),–,inactive: 2.96% [at 46.1 µM]
O=C(COc1ccc(Cl)cc1)c1ccc(O)cc1O,–,inactive: -1.25% [at 46.1 µM]
COC(=O)/C(=C\C(=O)c1ccc([N+](=O)[O-])cc1)Nc1ccc(OC)cc1,–,inactive: 6.89% [at 46.1 µM]
COC(=O)Nc1ccc(S(=O)(=O)N2CCCCCC2)cc1,"inconclusive: 29.1 µM [inhibitor, single point]",–
O=C(O)c1cccc(N2C(=O)c3cc4cccc(Br)c4cc3C2=O)c1,–,inactive: -0.508% [at 46.1 µM]
C=CCNC(=O)/C(C#N)=C\c1cc(Cl)c(OCC)c(OC)c1,–,inactive: 22.4%
CC(Oc1ccc(Br)cc1)C(=O)Nc1cc(Cl)ccc1N1CCN(C)CC1 (centres undefined),active: 8.91 µM,–
Cc1ccc(-n2nc(C(=O)c3ccccc3)n3c(=O)cc(-c4ccccc4)nc23)cc1,–,inactive: -4.32%
